Assay results taken from doi:10.1101/277269.
Results are given in words; binding and its absence hold for the method and conditions named. In cells and extracts the contact can be indirect. For some assays here: Where a sequence is shown, tags or fusion partners need not be part of it.

Assays:
[1] = molecular target: IAP1-Nluc (IAP1 fused to the N-terminal domain of luciferase) (Arabidopsis thaliana); test: split reporter
[2] = molecular target: GFP-IAP1 (Arabidopsis thaliana); test: FRET or BRET

| Binder | binding [1] | binding [2] |
| --- | --- | --- |
| Cluc-IAN9 (N-terminal fusion of IAN9 to the C-terminal domain of luciferase) (protein, UniProt F4HT21 1-342) MSLLDMGGDMMEDDWEFASSSNPKRTLVLVGRTGNGKSATGNSILGRKAFRSRARTVGVTSTCESQRVVQEDGDIINVVDTPGLFDLSTAADFIGKEIVRCISLAEDGIHAILLVFSVRRLAEEEQTVLSFLQALFGSKIADYMIVVFTGGDELEENEETLEEYLADYCPEFLKEILGICDNRLVLFNNKTTDKVKKAEQVQKLLSLVESVVKQNNGKPYSDELFHELQEEAIKLRDQKKEVELLQGYSNNEIDEFKKQIDMSYDRQLSRITEMVETKLRDTAKRLEQQLGEEQAARLEAEKRANEVQKRSSDEIKKLRENLERAEKETKELQKKLGKCINL | no binding |  |
| RFP-IAN9 (protein, UniProt F4HT21 1-342) MSLLDMGGDMMEDDWEFASSSNPKRTLVLVGRTGNGKSATGNSILGRKAFRSRARTVGVTSTCESQRVVQEDGDIINVVDTPGLFDLSTAADFIGKEIVRCISLAEDGIHAILLVFSVRRLAEEEQTVLSFLQALFGSKIADYMIVVFTGGDELEENEETLEEYLADYCPEFLKEILGICDNRLVLFNNKTTDKVKKAEQVQKLLSLVESVVKQNNGKPYSDELFHELQEEAIKLRDQKKEVELLQGYSNNEIDEFKKQIDMSYDRQLSRITEMVETKLRDTAKRLEQQLGEEQAARLEAEKRANEVQKRSSDEIKKLRENLERAEKETKELQKKLGKCINL |  | no binding |
